{"source": "paper PMC8560763", "about": "“Roles of metal ions in the selective inhibition of oncogenic variants of isocitrate dehydrogenase 1” (Communications Biology, 2021)", "experiment": "ITC, MgCl2 binding to 2OG", "conditions": "MgCl2 (5 mM), 2OG (500 µM), 50 mM Tris-HCl, pH 7.5", "data": [{"smiles": "[Cl-].[Cl-].[Mg+2]", "note": "[MgCl2]", "values": [{"measurement": "binding to 2OG", "value": "No binding is detected"}, {"measurement": "binding to 2OG", "setting": "listed as Mg^2+", "value": "no binding was observed"}]}]}
